Measured values from patent US10357516B2 (priority 2008, dated 2019).

System: RBC surface
Assay: Anti-acridine antibody binding capacity (ABC), immune flow cytometric assay
Type: cell-based, human

In the case of `O=C(CCNc1c2ccccc2nc2ccccc12)OCCN(CCCl)CCCl` [S-303, β-alanine, N-(acridin-9-yl), 2-[bis(2-chloroethyl)amino]ethyl ester], the antibody binding capacity (RBC treated with 2 mM acidic GSH) is reported as 123,714±5123 ABC, the antibody binding capacity (RBC treated with 20 mM GSH neutralized with 1 equivalent of NaOH and 0.2 mM S-303, several RBC preparations) is reported as “approximately 39,000 per red cell” and the antibody binding capacity (RBC treated with 20 mM GSH neutralized with 2 equivalents of NaOH) is reported as 18,407±1195 ABC.
